Data published in PMC8039524.
No constants are given. Whether binding was seen depends on the method and setting. In cells and extracts the contact can be indirect. Some results given as binding are weak or reduced against the parent protein; the word gives no strength.

By UniProt entry, the sequences of proteins in these tests, tags left out.
UniProt Q3V6T2: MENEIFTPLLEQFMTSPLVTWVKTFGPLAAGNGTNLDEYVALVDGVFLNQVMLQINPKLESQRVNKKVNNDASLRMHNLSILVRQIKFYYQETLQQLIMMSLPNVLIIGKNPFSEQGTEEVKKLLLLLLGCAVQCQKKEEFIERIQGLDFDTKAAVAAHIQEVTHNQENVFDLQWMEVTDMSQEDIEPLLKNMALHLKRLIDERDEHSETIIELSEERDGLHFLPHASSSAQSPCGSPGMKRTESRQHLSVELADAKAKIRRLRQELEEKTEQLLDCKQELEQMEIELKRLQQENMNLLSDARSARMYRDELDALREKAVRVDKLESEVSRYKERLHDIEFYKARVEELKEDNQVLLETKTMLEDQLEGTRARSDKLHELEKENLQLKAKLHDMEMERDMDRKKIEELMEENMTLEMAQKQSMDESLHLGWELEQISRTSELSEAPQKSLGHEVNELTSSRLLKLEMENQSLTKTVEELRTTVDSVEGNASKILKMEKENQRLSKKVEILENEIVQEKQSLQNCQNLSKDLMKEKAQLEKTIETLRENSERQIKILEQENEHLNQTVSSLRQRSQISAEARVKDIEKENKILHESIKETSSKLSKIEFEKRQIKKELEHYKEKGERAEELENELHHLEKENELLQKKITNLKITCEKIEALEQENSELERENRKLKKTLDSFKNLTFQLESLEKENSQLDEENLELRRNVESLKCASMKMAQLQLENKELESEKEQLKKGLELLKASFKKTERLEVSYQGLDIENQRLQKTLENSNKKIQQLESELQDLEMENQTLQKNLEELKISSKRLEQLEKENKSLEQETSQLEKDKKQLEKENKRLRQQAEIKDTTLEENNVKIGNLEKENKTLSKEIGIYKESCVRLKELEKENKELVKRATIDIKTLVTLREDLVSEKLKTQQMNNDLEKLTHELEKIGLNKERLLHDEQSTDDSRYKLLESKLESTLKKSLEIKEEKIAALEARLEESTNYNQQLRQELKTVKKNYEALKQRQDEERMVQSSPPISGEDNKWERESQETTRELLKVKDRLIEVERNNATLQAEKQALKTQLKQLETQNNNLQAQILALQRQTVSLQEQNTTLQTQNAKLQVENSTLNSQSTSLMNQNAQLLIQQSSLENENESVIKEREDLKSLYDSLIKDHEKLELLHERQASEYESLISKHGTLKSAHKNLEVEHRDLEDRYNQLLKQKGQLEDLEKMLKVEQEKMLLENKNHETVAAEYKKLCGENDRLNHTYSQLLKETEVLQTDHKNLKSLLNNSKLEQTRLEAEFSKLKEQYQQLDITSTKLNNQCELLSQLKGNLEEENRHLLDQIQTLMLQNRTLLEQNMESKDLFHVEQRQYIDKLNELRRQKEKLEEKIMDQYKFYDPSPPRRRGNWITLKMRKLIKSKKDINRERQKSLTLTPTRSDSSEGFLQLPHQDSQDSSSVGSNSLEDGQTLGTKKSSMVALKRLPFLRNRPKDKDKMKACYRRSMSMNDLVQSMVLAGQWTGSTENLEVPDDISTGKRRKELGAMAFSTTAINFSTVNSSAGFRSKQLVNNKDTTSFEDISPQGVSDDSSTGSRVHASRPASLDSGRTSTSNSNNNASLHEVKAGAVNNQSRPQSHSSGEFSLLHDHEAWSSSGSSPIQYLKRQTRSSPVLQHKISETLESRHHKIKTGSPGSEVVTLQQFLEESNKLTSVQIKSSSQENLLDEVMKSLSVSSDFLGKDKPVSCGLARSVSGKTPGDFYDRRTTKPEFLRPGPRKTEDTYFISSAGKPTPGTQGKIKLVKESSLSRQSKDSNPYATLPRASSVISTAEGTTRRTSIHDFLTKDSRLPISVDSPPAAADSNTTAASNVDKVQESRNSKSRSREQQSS

Molecular target: Girdin (girders of actin filament) (human (endogenous in BxPC-3 and PANC-1)) (UniProt Q3V6T2)
Test: co-IP; endogenous proteins in NP40 lysates (1000 ug) of BxPC-3 and PANC-1 cells; overnight at 4°C with relevant antibodies bound to Glutathione Sepharose beads; anti-Girdin antibodies in IPs, blotting with P62 antibodies

P62/SQSTM1 (Sequestosome-1) (from UniProt Q13501 1-440)
binding: binds
